Patent publication US20030055052A1 (priority 2000, published 2003)
One purity is given for all peptides; the source may state it once.

Experiments:
[1] = general procedure: Fmoc solid-phase peptide synthesis; H-Pro-2-chlorotritylchloride-resin; AMCA-resin; DIC/HOBt; HATU/HOAT/DIEA for first residue on AMCA-resin
[2] = general procedure: Fmoc solid-phase peptide synthesis; AMCA-resin; DIC/HOBt; HATU/HOAT/DIEA for first residue on AMCA-resin; details: whole synthesis, scale of the general procedure 200 mg resin, 0.158
[3] = whole synthesis, scale of the general procedure 200 mg resin, 0.158

For Benzyloxycarbonyl-Thz-Ala-Gly-Pro-OH, the “final HPLC purity” value [1, 3] was “HPLC>95%”.
With “Benzyloxycarbonyl-Thz-Ala-Gly-Pro-Doxorubicin” the “final HPLC purity” value ([1]; conjugation step) was “HPLC>95%”.
In the case of “Pyridin-3-ylmethoxycarbonyl-Thz-Ala-Gly-Pro-OH”, the “final HPLC purity” value [1, 3] is reported as “HPLC>95%”.
In the case of Z-Thz-Ala-Gly-Pro-AMCA-OH, the “final HPLC purity” value [2] is reported as “HPLC>95%”.
